For at least one compound, name, drawing or mass did not settle the structure.
System: Daudi target cells
Assay: NK cell cytotoxicity (NKCC), 6-hour 51Cr-release assay against Daudi target cells
Format: cell-based, human
Text: MNC were obtained from peripheral venous blood from healthy human blood donors by Ficoll-Hypaque centrifuging, followed by Percoll density-gradient fractionation (Timonen and Saksela, 1980, J. Immunol. Methods 36, 285-291; Hellstrand and Hermodsson, 1990, Scand. J. Immunol. 31, 631-645).
The target cells used in these experiments were K562, an NK-cell sensitive erythroleukemic cell line, or Daudi, a relatively NK-insensitive EBV-transformed B-cell lymphoblastoid cell line.
The NKCC was determined six times as the specific ^51Cr-release for a NMNC: target-cell ratio of between 30:1 and 3.8:1 in two-fold dilution gradients. The suspensions of MNC/target cells were incubated in microplates at 37° C. for 6 hours (Daudi) or 16 hours (K562). The supernatant solution was then collected and examined for radioactivity in a gamma counter. The maximum ^51Cr-release was measured in target cell cultures treated with Triton X-100. The NKCC was calculated as the cell lysis % by the formula 100×(experimental release−spontaneous release/maximum release−spontaneous release)=cell lysis %.
In the results shown in Table 2, MNC from five different donors were used. All compounds were added to mixtures of MNC and target cells at the start of a 6 h (Daudi) or 16 h (K562) effecter and target cell incubation. The effecter cells were obtained from Percoll fractions 7-8, containing 33-55% monocytes. […]

SMILES: CNC(=C[N+](=O)[O-])NCCSCc1ccc(CN(C)C)o1 [Ran, ranitidine, reference compound]
- influence on the effect of serotonin on NKCC (ranitidine 10^−4 M, ketanserin and ondansetron in equimolar concentrations): did not alter the effect of serotonin
- effect of histamine on monocyte-induced suppression of resting and IFN-α-activated NK cells: influence of the agent (simultaneous treatment, Table 3): completely blocked

From patent publication US20020035998A1, “Method for treatment of cancer and infectious disease” (priority 1995, published 2002)
